Data reported in patent US20090202990.

Assays:
[1] = biological target: CRP (cAMP binding protein, catabolite activator protein) (UniProt P0ACJ8); experiment: SELEX; conditions: five Spacer18 linkers to 3' signaling oligo on MIS10X3 [strand 1: five Spacer18 linkers between 38 and 39 (left out)]; cAMP required for binding; co-construct during selection; letters built from the parent sequence and the stated change
thrombin = experiment: binding assay; conditions: single-stranded DNA, letters built from the parent sequence and the stated change
[2] = five Spacer18 linkers between signaling oligo and aptamer [5' fluorescein, (Spacer18)5 linker between 7 and 8 (left out)], FRET biosensor paired with THR27, 20 or 100 nM sensor, label: 5' fluorescein

## AACGCAATAAATGTGAAGTAGATCACATTTTAGGCACCGATGGCT / GGTGCCTAAAATGTGATCTACTTCACATTTATTGCGTT [MIS10X3/MIS11 CRP site duplex]
[1]
  selection result: selected

## AGATGCGAGGTTGGGGGTACTAGGTATCAATGGGTAGGGTGGTGTAACGC [THR35]
thrombin; [2]
  binding result: binds

## AGATGCGAGTCCGTGGTAGGGCAGGTTGGGGTGACT [THR21 (60-18 [29] aptamer construct)]
thrombin; five Spacer18 linkers [5' fluorescein at 1, five Spacer18 linkers between 7 and 8 (left out)], FRET comparison biosensor paired with THR27, label: 5' fluorescein
  binding result: binds

## AGATGCGAGTGAAGGTTGGGGGTACTAGGTATCAATGGGTAGGGTGGTGTAACGCCATAT [THR36]
thrombin; [2]
  binding result: binds

## GGTTGGTGTGGTTGGTCGCATCT [THR27 (G15D construct)]
thrombin; five Spacer18 linkers, C6 amino-dT [five Spacer18 linkers between 15 and 16 (left out), 16 = C6 amino-dT], FRET biosensor paired with THR35, THR36 or THR21, label: Texas Red
  binding result: binds

The exact form of at least one protein or probe is not confirmed.
